Consider 4 molecules from paper PMC9307593.

For assay [1], the target named is T1, Flag-tagged NUPR1 (wild type) (UniProt O60356).
T1 sequence: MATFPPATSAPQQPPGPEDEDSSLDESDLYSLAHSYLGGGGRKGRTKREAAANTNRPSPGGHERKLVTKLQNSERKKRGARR
Kind of assay: proximity ligation; MiaPaCa-2 cells transfected with Flag WT-NUPR1 or the mutants Thr68Gln, Ala33Gln, Thr68Gln/Ala33Gln; PARP1 and Flag primary antibodies.

A further assay deals with T2, GFP-tagged NUPR1 (UniProt O60356).
T2 sequence: T1 sequence
Description: co-IP; MiaPaCa-2 cells transfected with PARP1-Flag and NUPR1-GFP plasmids; anti-FLAG or anti-GFP agarose beads, blots with anti-GFP or anti-Flag; with or without ZZW-115.

Assay [2] has as its target T3, recombinant wild-type NUPR1 (UniProt O60356).
T3 sequence: T1 sequence
Description: co-IP; recombinant NUPR1 and PARP1 mixed 1:1 (2 ug of each); Dynabeads and anti-NUPR1 antibody; eluate analysed by Western blotting; both purified. (Immunoblotting shows a protein as a band on a membrane.)

Assay [3] deals with T3, recombinant wild-type NUPR1. Kind of assay: fluorescence spectra; spectrum of the mixture against the sum of the spectra of the isolated proteins; PARP1 2 uM, NUPR1 20 uM, 25 °C, pH 7.5, 50 mM Tris; both purified.
The target is the same in assay [4]. Kind of assay: far-UV circular dichroism; spectrum of the mixture against the sum of the spectra of the isolated proteins; PARP1 2 uM, NUPR1 20 uM, 25 °C, pH 7.5, 50 mM Tris; both purified.
In another assay the target is PARP1-Flag. Kind of assay: co-IP; MiaPaCa-2 cells transfected with PARP1-Flag and NUPR1-GFP plasmids; anti-FLAG or anti-GFP agarose beads, blots with anti-GFP or anti-Flag; with or without ZZW-115.

No constants are given. Whether binding was seen depends on the method and setting. Binding calls can cover weak binding; strength is not graded here. For part of these data: Binding seen in cells or lysates may run through a third protein. For part of these data: Where a sequence is shown, tags or fusion partners need not be part of it.

For “PARP1 (endogenous, MiaPaCa-2 cells) (human (endogenous in MiaPaCa-2)) (enzyme)”, in assay [1], the binding entry is given as “binds”.
Turning to PARP1-Flag (enzyme), the binding entry with GFP-tagged NUPR1 is on record as “binds”.
On to recombinant PARP1 (enzyme), for which the binding result in assay [2], in assay [3] and in assay [4] was “binds” throughout.

B1: GFP-tagged NUPR1 (protein, UniProt O60356 1-82)
chain: T1 sequence
In the case of B1, the binding result with PARP1-Flag is given as “binds”.
